Measured values from patent US9206206B2, “Oxidized lipid compounds and uses thereof” (Vascular Biogenics Ltd., priority 2008, dated 2015).
Some results were stated once for a whole list of compounds, not compound by compound. At least one compound was matched to its structure with a doubt left.

System: mouse peritoneal macrophages
Assay: In vitro toxicity assay
Assay type: cell-based
Conditions: 24 hours, crystal violet cell number
Experimental: Thioglycollate-elicited mouse peritoneal macrophages were washed, counted and seeded (2×10^5 to 3×10^5 cells per well in 24-well plates) in triplicate wells in medium containing RPMI-1640, L-glutamine, 10% FBS and antibiotics (penicillin/streptomycin). After a recovery period of 24 hours, the tested compound (or controls) was added to the cell medium at doses of 2, 10, 20, 50, 100 or 150 μg/ml, keeping the added volume equal in all treatments by complementing the volume with solvent.
Following addition of the compounds, the cells were incubated for an additional 24 hours, after which the cells were washed, fixed with a solution of 10% methanol/10% acetic acid and stained with crystal violet (0.4% in 20% ethanol). Cell numbers were measured by determining optical density at 595 nm. Cells incubated with vehicle (PBS with 1% ethanol) were used as a control, to which cell numbers in treated samples were normalized.
Data are presented as mean±standard deviation. Statistical significance relative to vehicle-treated cells was calculated using a student's t-test, with p-values of less than 0.05 being considered as indicating statistical significance.

`C[N+](C)(C)CCOP(=O)([O-])OCC(COCCCCCCCCCCCCCCCC(=O)O)OCCCCC(=O)O` (stereo not shown) [CI-213, 1-(15′-carboxy)pentadecyl-2-(4-carboxy)butyl-glycero-3-phosphocholine] was tested, and the LD50 was “higher than 150 μg/ml”.
